Measurements as given in publication PMC8945123 (ACS Omega, 2022).

Tests used:
[1] = Neurotoxicity MTT assay on neuroblastoma SH-SY5Y cells; type: cell-based; conditions: human
[2] = PAMPA-BBB permeation assay; conditions: prediction of BBB penetration from Pe

**Q.** What does the source list for `COc1cc2c(cc1OC)C(=O)C(CC1CCN(Cc3ccccc3)CC1)C2` (centres unmarked) [donepezil, reference compound]?
**A.** viability at 1 µM [1]: 97 ± 1.18%; viability at 10 µM [1]: 94.8 ± 1.29%; viability at 20 µM [1]: 82.4 ± 1.03%; viability at 40 µM [1]: 76.6 ± 1.37%; prediction (PAMPA-BBB) (CNS+, CNS–) [2]: CNS+ (‘CNS+’ (prediction of high BBB permeation); Pe (10^–6 cm/s) > 4.39)
